Results are given in words; binding and its absence hold for the method and conditions named. Some entries that bind do so weakly or less than the wild type.
What was measured:
[1] = target: neural thread protein (NTP), preparation not stated; assay: peptide conjugated to rabbit IgG, assessed for NTP immunoreactivity
[2] = target: neural thread protein (NTP), native, in urine of patients (human); assay: NTP-3 agarose affinity column
[3] = target: neural thread protein (NTP), native, in urine of patients (human); assay: NTP-3 agarose affinity column, pH 2 eluate tested by 7C Gold strip and SDS gel

Binder | binding [1] | binding [2] | binding [3]
LHARLCLANFCGRNRV [Harlil peptide NTP-1] | binds | – | –
CARYRTGHHARLM [Harlil peptide NTP-3] | binds | binds | binds
LARLCLANFCGNNNV [Harlil peptide NTP-2] | binds | – | –
HHARLPLANFCG [Harlil peptide NTP-4] | binds | – | –
RTGHHARLCLANFC (C* (the cysteine in H A R L C*L) blocked with Acetamido Methyl (C3H6NO)) [Harlil peptide NTP-5] | binds | – | –
CESARYRTGHHARLC (C* (C-terminal cysteine) blocked with Acetamido Methyl (C3H6NO)) [Harlil peptide NTP-6] | binds | – | –
DNTHHARLIL [Harlil peptide NTP-7] | binds | – | –
SHHARLIL [Harlil peptide NTP-8] | binds | – | –

Source: patent US20090258426A1
